Results: PubChem BioAssay AID493014 (National Center for Advancing Translational Sciences (NCATS), 2011)
Some of the results follow. These are further read-outs of the screen, such as a control signal, another cell line or another target. No call is given for them. Most of these compounds were active or inconclusive in the main read-out, so they are no random draw. The note in brackets gives the kind of curve behind each potency; many fits are weak.

Assay: qHTS Assay to Find Inhibitors of Chronic Active B-Cell Receptor Signaling
Conditions: ABC-DLBCL IkBa-CBG/CBR reporter, luminescence ratio (green luciferase fused to IkBa over red control in TMD8 lymphoma cells), 4 h
Summary of the method: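 TMD8 ABC-DLBCL cells carrying doxycycline-inducible green luciferase fused to IkappaBalpha plus unfused red luciferase were exposed to compounds (up to 46 uM) for 4 hrs at 37C. Activity came from the overlap-corrected green/red luminescence ratio.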

[1] = measured here: CBR red luminescence, cell number
[2] = measured here: IkBa-CBG green luminescence

SMILES | AC50 [1] | AC50 [2]
CCOc1ncccc1C(=O)OCc1cc(=O)oc2c(C)c(C)ccc12 | 0.631 µM [falling, full curve] | –
COc1ccc(C(=O)COC(=O)C2CCN(c3ccc(C(F)(F)F)cn3)CC2)c(OC)c1 | 23.1 µM [rising, single point] | –
CCO/C=C1\C(=O)N(c2ccc(OCC)cc2)C(=O)c2ccccc21 | 5.01 µM [rising, partial curve, poor fit] | –
CCCc1cc(=O)n2[nH]c(-c3cc(OC)c(OC)c(OC)c3)nc2n1 | 23.1 µM [rising, single point] | 32.6 µM [falling, partial curve, poor fit]
Cc1nn(CCC#N)c(N)c1C1(O)C(=O)Nc2c(Cl)cc(Cl)cc21 (centres undefined) | 20 µM [rising, partial curve, poor fit] | 15.8 µM [falling, single point]
COc1cccc(CCNc2ncnc3c2nnn3C)c1 | 3.16 µM [falling, full curve, poor fit] | –
COc1ccc2c(c1)OC[C@H]1[C@H]2N2C(=O)c3cc(OC)ccc3NC(=O)[C@@]2(C)[C@H]1c1ccccc1 | 2.59 µM [falling, full curve] | 2.91 µM [rising, full curve, poor fit]
O=C(COC(=O)c1cccc(NS(=O)(=O)c2ccc(F)c(F)c2)c1)NC(=O)NC1CCCCC1 | 20.6 µM [falling, single point] | –
CSc1ncc2ncn(C3OC(CO)C(O)C3O)c2n1 (centres undefined) | 31.6 µM [falling, single point] | 12.6 µM [rising, partial curve, poor fit]
O=C(NCc1ccc2c(c1)OCO2)c1nn(-c2ccccc2)c(=O)c2ccccc12 | 4.11 µM [rising, partial curve, poor fit] | –
CCOC(=O)c1c(C)nc(C)c(C(=O)OCC)c1-c1ccc(OC)cc1 | 14.6 µM [rising, partial curve, poor fit] | –
N#CC1=C(Nc2ccccc2)SC=C(c2ccc(F)cc2)N=C1N1CCOCC1 | 3.98 µM [falling, single point] | –
Cc1cc2oc(C(=O)Nc3c(C)n(C)n(-c4ccccc4)c3=O)c(C)c2cc1Cl | 25.9 µM [falling, single point] | –
COc1cccc(Nc2nc(-c3sc(NC(=O)c4ccco4)nc3C)cs2)c1 | 14.1 µM [falling, single point] | –
O=C(Cc1csc(N2CCOCC2)n1)N/N=C/c1ccc(Cl)cc1Cl | – | 6.51 µM [rising, partial curve, poor fit]

Compounds listed so far containing a cyano group, in the order listed:
SMILES | AC50 [1] | AC50 [2]
Cc1nn(CCC#N)c(N)c1C1(O)C(=O)Nc2c(Cl)cc(Cl)cc21 (centres undefined) | 20 µM [rising, partial curve, poor fit] | 15.8 µM [falling, single point]
N#CC1=C(Nc2ccccc2)SC=C(c2ccc(F)cc2)N=C1N1CCOCC1 | 3.98 µM [falling, single point] | –
